Source: PubChem BioAssay (NCATS)
Inconclusive means that the source gave no clear call. Such entries were picked first, then a sample of the others. For some of these results: A potency beside an inconclusive call is a rough fit, not a confirmed value. Activity calls are given as the source filed them. Unless noted, calls come from the whole dose curve; as a rule, active = well fitted curve in the direction sought with a large enough effect; inconclusive = small, poorly fitted or top-dose-only effect, or another doubt; inactive = no such curve, though single readings can be large; an effect the other way counts as inactive or inconclusive.

Chains of the proteins cited; added tags and fusions are not shown. Lines headed by an entry give the natural chain unless they say otherwise; changes in a name come on top.
UniProt Q07343: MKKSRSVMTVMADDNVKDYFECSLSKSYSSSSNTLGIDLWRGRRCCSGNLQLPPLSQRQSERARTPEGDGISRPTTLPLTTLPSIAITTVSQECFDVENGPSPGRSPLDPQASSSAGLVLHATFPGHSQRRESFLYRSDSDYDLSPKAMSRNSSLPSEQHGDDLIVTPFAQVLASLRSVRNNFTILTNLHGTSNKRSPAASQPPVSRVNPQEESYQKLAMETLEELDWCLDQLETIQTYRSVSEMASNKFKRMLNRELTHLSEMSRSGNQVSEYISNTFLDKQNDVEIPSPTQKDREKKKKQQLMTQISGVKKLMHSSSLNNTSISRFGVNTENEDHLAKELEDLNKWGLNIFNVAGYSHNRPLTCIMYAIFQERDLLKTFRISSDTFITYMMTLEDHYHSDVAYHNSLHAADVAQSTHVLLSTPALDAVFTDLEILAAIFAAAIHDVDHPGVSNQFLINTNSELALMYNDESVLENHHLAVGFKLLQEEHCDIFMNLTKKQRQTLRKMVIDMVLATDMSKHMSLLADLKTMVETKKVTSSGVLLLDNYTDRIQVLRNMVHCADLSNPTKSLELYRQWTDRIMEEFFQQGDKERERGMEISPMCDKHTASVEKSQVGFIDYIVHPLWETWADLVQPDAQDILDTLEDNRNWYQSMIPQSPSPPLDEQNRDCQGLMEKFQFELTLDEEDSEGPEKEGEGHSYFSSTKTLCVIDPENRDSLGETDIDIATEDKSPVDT
UniProt P33261, whole entry, looked up: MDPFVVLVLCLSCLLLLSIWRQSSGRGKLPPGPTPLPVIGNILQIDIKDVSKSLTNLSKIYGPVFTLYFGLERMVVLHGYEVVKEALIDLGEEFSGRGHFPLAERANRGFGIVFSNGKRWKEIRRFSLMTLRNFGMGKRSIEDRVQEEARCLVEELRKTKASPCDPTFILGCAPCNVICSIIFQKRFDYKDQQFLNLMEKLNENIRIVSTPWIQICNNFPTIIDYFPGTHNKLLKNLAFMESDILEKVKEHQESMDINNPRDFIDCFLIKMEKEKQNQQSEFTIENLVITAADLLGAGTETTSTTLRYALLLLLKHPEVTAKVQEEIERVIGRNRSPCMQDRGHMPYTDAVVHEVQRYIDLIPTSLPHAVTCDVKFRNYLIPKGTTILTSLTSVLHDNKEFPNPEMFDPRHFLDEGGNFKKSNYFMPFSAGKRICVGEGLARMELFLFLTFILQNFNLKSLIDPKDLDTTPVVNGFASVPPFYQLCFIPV
UniProt P08482: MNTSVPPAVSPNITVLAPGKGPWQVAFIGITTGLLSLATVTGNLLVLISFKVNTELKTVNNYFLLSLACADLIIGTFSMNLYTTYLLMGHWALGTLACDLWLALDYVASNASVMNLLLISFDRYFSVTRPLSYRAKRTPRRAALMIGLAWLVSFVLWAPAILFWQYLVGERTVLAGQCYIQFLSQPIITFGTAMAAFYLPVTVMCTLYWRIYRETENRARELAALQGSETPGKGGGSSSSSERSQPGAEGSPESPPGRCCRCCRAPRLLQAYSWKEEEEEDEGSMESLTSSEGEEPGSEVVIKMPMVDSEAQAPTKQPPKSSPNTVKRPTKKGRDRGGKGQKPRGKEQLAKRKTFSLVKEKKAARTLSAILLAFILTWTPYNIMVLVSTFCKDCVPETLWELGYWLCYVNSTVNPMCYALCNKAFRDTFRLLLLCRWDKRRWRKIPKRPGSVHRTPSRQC
UniProt P27695, whole entry, looked up: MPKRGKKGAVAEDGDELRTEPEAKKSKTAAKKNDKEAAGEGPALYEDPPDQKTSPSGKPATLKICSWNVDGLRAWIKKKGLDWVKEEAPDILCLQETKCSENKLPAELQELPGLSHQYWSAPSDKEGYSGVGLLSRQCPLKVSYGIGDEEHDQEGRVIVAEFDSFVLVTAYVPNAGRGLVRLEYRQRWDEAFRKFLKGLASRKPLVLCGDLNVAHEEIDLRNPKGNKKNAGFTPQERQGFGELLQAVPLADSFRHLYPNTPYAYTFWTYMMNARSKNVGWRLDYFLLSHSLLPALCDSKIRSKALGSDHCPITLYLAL
UniProt P02791: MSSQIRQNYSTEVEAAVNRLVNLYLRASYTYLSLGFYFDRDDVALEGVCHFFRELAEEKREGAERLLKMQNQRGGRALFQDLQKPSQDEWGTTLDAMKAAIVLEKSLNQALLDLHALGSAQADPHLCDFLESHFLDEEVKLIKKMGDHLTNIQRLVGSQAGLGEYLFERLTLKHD
UniProt P54132: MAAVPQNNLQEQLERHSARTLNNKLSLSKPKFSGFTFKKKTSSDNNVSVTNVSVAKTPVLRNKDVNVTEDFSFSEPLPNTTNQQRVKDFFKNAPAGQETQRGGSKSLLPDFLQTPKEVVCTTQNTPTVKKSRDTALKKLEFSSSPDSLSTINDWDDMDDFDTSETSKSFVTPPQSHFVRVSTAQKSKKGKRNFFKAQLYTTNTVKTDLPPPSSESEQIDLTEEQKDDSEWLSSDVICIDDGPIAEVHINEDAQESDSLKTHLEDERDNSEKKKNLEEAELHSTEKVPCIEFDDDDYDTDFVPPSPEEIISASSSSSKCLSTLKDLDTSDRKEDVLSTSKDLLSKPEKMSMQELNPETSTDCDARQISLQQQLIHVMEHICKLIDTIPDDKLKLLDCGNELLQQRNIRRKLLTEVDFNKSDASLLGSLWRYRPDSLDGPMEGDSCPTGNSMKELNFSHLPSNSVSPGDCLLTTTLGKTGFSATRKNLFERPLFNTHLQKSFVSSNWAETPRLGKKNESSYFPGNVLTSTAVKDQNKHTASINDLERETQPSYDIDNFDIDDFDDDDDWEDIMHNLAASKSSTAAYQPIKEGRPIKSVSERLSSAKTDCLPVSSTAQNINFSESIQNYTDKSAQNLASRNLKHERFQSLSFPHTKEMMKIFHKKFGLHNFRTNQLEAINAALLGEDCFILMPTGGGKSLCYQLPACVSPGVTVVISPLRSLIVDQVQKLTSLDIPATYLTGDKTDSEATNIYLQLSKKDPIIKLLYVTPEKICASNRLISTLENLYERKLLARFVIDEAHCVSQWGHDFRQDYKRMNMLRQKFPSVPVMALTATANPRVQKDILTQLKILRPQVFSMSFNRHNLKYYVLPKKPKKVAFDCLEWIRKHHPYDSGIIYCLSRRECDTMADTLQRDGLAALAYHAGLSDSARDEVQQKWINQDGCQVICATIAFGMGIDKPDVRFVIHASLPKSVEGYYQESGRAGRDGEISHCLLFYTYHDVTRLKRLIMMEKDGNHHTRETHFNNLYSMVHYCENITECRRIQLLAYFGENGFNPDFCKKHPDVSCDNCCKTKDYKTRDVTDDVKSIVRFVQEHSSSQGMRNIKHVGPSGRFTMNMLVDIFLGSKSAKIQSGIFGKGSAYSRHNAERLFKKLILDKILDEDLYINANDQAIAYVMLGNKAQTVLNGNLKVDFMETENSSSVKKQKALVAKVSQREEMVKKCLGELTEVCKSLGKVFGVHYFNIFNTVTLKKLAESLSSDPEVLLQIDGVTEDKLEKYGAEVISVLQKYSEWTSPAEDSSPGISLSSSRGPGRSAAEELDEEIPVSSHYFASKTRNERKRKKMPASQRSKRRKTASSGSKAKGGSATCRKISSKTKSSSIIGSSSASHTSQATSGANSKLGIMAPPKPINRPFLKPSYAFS
UniProt O94782: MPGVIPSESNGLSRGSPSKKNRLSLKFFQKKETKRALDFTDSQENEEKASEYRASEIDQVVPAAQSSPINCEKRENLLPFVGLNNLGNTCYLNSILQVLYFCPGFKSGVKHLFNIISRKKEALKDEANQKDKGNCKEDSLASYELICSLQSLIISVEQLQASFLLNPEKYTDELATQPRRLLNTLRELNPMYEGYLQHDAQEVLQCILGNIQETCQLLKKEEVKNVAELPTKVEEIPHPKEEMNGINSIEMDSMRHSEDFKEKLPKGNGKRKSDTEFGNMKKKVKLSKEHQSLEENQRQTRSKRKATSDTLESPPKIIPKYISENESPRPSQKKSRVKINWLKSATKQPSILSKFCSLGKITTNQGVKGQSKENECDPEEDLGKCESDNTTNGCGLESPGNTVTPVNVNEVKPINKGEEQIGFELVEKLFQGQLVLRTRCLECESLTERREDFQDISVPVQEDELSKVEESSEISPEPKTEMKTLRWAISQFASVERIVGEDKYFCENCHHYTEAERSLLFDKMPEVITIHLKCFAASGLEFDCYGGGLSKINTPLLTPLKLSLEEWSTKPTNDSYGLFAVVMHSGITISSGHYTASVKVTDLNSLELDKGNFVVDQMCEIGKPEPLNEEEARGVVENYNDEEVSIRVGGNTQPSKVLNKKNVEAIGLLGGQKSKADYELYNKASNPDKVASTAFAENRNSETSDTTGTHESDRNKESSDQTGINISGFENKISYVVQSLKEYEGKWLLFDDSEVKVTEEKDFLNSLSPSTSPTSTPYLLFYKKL
UniProt O95398: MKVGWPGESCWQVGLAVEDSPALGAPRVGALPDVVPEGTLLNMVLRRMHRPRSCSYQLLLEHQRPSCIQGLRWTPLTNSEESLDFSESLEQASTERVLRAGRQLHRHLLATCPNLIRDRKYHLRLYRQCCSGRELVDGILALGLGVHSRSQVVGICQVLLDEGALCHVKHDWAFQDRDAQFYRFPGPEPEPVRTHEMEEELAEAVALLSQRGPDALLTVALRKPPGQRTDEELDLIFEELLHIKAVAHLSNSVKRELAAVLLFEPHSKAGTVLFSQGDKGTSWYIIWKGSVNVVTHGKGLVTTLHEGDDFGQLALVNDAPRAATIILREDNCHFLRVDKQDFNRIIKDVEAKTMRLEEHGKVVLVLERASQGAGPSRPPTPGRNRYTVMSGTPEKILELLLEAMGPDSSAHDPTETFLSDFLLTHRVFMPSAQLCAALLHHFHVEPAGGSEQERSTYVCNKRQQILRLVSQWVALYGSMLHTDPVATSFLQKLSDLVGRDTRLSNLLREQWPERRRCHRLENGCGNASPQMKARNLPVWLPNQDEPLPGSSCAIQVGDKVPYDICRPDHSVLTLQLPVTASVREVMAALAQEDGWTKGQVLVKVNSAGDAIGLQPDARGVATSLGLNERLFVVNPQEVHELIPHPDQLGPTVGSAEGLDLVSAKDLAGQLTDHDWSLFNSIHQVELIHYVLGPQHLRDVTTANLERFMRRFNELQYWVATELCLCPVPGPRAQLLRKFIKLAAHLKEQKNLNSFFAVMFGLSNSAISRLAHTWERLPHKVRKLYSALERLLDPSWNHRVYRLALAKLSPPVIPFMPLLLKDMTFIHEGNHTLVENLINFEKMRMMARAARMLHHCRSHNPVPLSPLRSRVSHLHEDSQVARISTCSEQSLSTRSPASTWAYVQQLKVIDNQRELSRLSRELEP
UniProt Q8WZA2: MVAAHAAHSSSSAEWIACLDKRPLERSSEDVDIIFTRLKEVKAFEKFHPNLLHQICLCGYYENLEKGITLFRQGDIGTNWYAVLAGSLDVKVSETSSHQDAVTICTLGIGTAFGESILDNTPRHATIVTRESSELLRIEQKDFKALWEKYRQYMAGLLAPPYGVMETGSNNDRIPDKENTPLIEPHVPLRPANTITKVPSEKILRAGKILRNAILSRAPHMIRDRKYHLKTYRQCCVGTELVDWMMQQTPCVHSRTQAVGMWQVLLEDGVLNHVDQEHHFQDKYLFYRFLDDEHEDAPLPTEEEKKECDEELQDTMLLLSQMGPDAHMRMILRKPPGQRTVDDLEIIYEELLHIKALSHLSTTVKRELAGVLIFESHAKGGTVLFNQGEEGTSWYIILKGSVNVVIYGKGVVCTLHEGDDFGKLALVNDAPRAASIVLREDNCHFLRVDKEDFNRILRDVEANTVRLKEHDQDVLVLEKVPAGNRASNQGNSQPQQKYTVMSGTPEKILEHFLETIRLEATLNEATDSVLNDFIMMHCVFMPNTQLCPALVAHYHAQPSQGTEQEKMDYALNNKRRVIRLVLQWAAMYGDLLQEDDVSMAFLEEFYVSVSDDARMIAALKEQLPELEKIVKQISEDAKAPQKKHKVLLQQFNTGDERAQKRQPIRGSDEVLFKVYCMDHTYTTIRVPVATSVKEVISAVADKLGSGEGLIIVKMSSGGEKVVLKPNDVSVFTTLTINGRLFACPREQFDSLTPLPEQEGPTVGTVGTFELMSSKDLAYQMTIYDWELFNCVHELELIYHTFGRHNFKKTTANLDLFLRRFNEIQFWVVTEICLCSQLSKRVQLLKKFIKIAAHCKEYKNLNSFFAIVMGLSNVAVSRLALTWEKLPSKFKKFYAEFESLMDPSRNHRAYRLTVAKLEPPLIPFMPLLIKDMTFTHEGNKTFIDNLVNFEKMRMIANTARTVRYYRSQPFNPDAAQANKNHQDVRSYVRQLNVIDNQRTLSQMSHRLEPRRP

Experiments:
[1] = Stat Signaling Pathway (AID 446; active = well fitted curve in either direction with a large enough effect, not every such curve was filed as active; inconclusive = small, poorly fitted or top-dose-only effect, or another doubt;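 note: ME-180 cervical cancer cells given 40 pM IL-6 alongside compound; SIE-controlled beta-lactamase reporter measured as 460/530 nm FRET emission ratio; % is set by controls: 0 for no effect and ±100 for the full control effect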); details: ME-180 SIE beta-lactamase reporter, IL-6 stimulated, 5 h; at 7.69 µM (top of the series) unless noted
Procedure, shortened: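 Reporter line: ME-180 cervical carcinoma, SIE-beta-lactamase. Treatment: compound with 40 pM IL-6, 5 hrs, 37 C, in low-serum OPTI-MEM with 10 mM HEPES pH 7.3. Detection: 460/530 nm fluorescence.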

[2] = molecular target: 3',5'-cyclic-AMP phosphodiesterase 4B (Homo sapiens) (UniProt Q07343); assay: qHTS Assay for Inhibitors of PDE-IV (AID 607; active = well fitted activation curve with a large enough effect in the main read-out, with a control signal flat, not every such curve was filed as active; inconclusive = small, poorly fitted or top-dose-only effect, or effect the other way, or a change in a side signal; note: potency is the fitted concentration of half-maximal effect); details: HEK293 ACTOne CNG channel cells, membrane potential fluorescence; activation (PDE inhibition): at 22.9 µM (top of the series)
Procedure, shortened: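 Cell-based read-out of cAMP via a modified cyclic nucleotide-gated channel and membrane potential dye (535/590 nm) in HEK293 cells expressing PDE4 endogenously. Compounds tested up to 22.9 uM final; 100 uM RO 20-1724 reference.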

[3] = qHTS Assay for Identification of Small Molecule Antagonists for NFkB Signaling Pathway (AID 895; active = well fitted inhibition curve with a large enough effect in the signal ratio, with a control signal flat, not every such curve was filed as active; inconclusive = small, poorly fitted or top-dose-only effect, or effect the other way, or a change in a side signal; the % refers to the signal ratio; note: potency is the fitted concentration of half-maximal effect); details: NFkB beta-lactamase reporter cells, FRET ratio 460/530, stimulated with 10 pM TNF alpha; activity change, negative = inhibition: at 38.3 µM (top of the series)
Procedure, shortened: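 ME-180 NFkB-bla cells (beta-lactamase under NFkB response element), plated overnight, treated with compound then 10 pM TNF alpha (about EC50) for 5 hrs at 37 C. LiveBLAzer FRET read at 460/530 nm emission, 405 nm excitation.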

[4] = molecular target: Cytochrome P450 2C19 (Homo sapiens) (UniProt P33261); assay: qHTS Assay for Inhibitors and Substrates of Cytochrome P450 2C19 (AID 899); note: potency is the fitted concentration of half-maximal effect; nearly all actives have a fitted effect of over 60% in size
Procedure, shortened: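 Luminescent read-out of luciferin formed from Luciferin-H EGE (10uM, equal to KM). Enzyme 5nM in 50mM KPO4; compound added, 10 min at 37C, then NADPH regenerating system for 60 min at 37C. Full inhibition defined by 57uM ketoconazole.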

[5] = qHTS Assay for Identification of Small Molecule Agonists for Hypoxia Response Element Signaling Pathway (AID 914; active = well fitted activation curve with a large enough effect in the signal ratio, with a control signal flat, not every such curve was filed as active; inconclusive = small, poorly fitted or top-dose-only effect, or effect the other way, or a change in a side signal; the % refers to the signal ratio; note: potency is the fitted concentration of half-maximal effect; for activation: % of control where 0% means no effect); details: ME-180 (cervical carcinoma) HRE-bla reporter, beta-lactamase ratio, CoCl2, 17 h; activation: active compounds read high
Procedure, shortened: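 Read-out: CCF4 FRET ratio of 460nm to 530nm emission (excitation 405nm) after 2.5 hours at room temperature, taken from HRE-bla ME-180 cells that had been exposed to compound and EC50 CoCl2 for 17 hours.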

[6] = qHTS Assay for Identification of Small Molecule Agonists for Thrombopoietin (TPO) Signaling Pathway (AID 917); note: potency is the fitted concentration of half-maximal effect
Procedure, shortened: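 Activators of TPO signaling were sought in murine Ba/F3 cells transfected with the human receptor, using a luciferase gene driven by the Glycoprotein IIb promoter; 24-hr compound exposure at 37 C alongside 26 pM TPO, in IL-3-free medium.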

[7] = molecular target: Muscarinic acetylcholine receptor M1 (Rattus norvegicus) (UniProt P08482); assay: qHTS Assay for Antagonists of Acetylcholine Muscarinic M1 Receptor: Kinetic Measurement of Intracellular Calcium Response (AID 943); note: potency is the fitted concentration of half-maximal effect; nearly all actives have a fitted effect of over 75% in size
Procedure, shortened: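 Intracellular calcium flux, recorded with Fluo-4 in a kinetic plate reader, served as signal; the response to carbachol at EC80 (100 nM final) was taken as maximal over minimal fluorescence after a 10 min compound pre-incubation in rat M1-CHO cells.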

[8] = molecular target: Muscarinic acetylcholine receptor M1 (Rattus norvegicus) (UniProt P08482); assay: qHTS Assay for Antagonists of Acetylcholine Muscarinic M1 Receptor: Measurement of IP-One Response (AID 944); note: potency is the fitted concentration of half-maximal effect; nearly all actives have a fitted effect of over 75% in size
[9] = qHTS Assay for Lipid Storage Modulators (AID 1519; calls by dose curve; note: % is set by controls: 0 for no effect and ±100 for the full control effect); details: Drosophila S3 cells, BODIPY lipid droplet/cell ratio, laser cytometry, cells loaded with oleic acid; activity change, negative = inhibition: at 57.5 µM (top of the series) unless noted
Procedure, shortened: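 Cells seeded at 5,000 per well were treated with compounds over a concentration series and loaded with oleic acid (400 uM, as added). Lipid droplet fluorescence (488 nm excitation, 500-530 nm channel) was read by laser-scanning cytometry and normalized to 20 uM Triacsin C.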

[10] = molecular target: DNA repair nuclease/redox regulator APEX1 (Homo sapiens) (UniProt P27695); assay: qHTS Validation Assay for Inhibitors of the Human Apurinic/apyrimidinic Endonuclease 1 (APE1) (AID 1705; note: potency is the fitted concentration of half-maximal effect)
Procedure, shortened: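 Read-out: TAMRA fluorescence (525 nm ex, 598 nm em) from cleavage of a quenched THF abasic-site duplex, 50 nM final; activity taken as intensity change between third and first of three reads 60 s apart.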

[11] = molecular target: Endonuclease 4 (Escherichia coli (strain K12)) (UniProt P0A6C1); assay: Counterscreen for APE1 Inhibitors: qHTS Validation Assay for Inhibitors of Endonuclease IV (AID 1708); note: potency is the fitted concentration of half-maximal effect
Procedure, shortened: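 Cleavage of a quenched abasic-site DNA duplex (50 nM, 5'-TAMRA, 3'-BHQ-2) by 2 nM enzyme is followed as fluorescence increase. Compounds are preincubated with enzyme 15 min at room temperature before substrate addition.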

[12] = qHTS for differential inhibitors of proliferation of Plasmodium falciparum line GB4 (AID 1816); details: Potency: Plasmodium falciparum GB4 proliferation inhibition;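 note: potency is the fitted concentration of half-maximal effect; parasite growth measured after 72 h incubation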
[13] = qHTS for differential inhibitors of proliferation of Plasmodium falciparum line 3D7 (AID 1876); note: potency is the fitted concentration of half-maximal effect
[14] = qHTS for differential inhibitors of proliferation of Plasmodium falciparum line D10 (AID 1877);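 note: potency is the fitted concentration of half-maximal effect; parasites grown with compound for 72 h before DNA staining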
[15] = qHTS for differential inhibitors of proliferation of Plasmodium falciparum line HB3 (AID 1886); details: Potency: Plasmodium falciparum HB3 proliferation inhibition;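 note: potency is the fitted concentration of half-maximal effect; parasites grown with compound for 72 h before SYBR Green readout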
[16] = molecular target: Ferritin light chain (Equus caballus) (UniProt P02791); assay: qHTS Validation Assay for Identification of Novel General Anesthetics (AID 2323); note: potency is the fitted concentration of half-maximal effect
Procedure, shortened: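 10 uM horse-spleen apoferritin + 1-AMA (50% saturated, PBS); cpd pin-transferred, 10 min RT. Ex 380/Em 535 nm endpoint. Activity normalized between free 1-AMA and 1-AMA/apoferritin; 4-parameter Hill fit of concentration-response.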

[17] = molecular target: RecQ-like DNA helicase BLM (Homo sapiens) (UniProt P54132); assay: qHTS Validation Assay for Inhibitors of Bloom's syndrome helicase (BLM) (AID 2364);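 note: plate controls were DMSO vehicle for no effect and enzyme-free control for full effect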
Procedure, shortened: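 50 nM BLM preincubated 15 min at room temperature with compound in pH 8.0 Tris buffer containing 2.5 ug/ml poly(dI-dC); started with 200 nM TAMRA/BHQ-2 forked duplex and 2 mM ATP (final). Unwinding read as TAMRA fluorescence increase, two reads 2 h apart.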

[18] = Validation screen for small molecules that induce DNA re-replication in MCF 10A normal breast cells (AID 463097); note: potency is the fitted concentration of half-maximal effect; nearly all actives have a fitted effect of over 60% in size
Procedure, shortened: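 250 MCF 10A cells/well; compound pin-transferred; 48 hr, 37 C, 5% CO2; Hoechst 40 min; imaged 405/500-530 nm. Hits = more high-intensity nuclei.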

[19] = molecular target: Ubiquitin carboxyl-terminal hydrolase 1 (Homo sapiens) (UniProt O94782); assay: Inhibitors of USP1/UAF1: Pilot qHTS (AID 504865); note: potency is the fitted concentration of half-maximal effect; nearly all actives have a fitted effect of over 35% in size
Procedure, shortened: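 1nM USP1/UAF1 + cpd, 15 min RT; start w/ Ub-Rho 150nM final; kinetic FL 480/540 nm, 6 reads q60 s. Buffer 50mM HEPES pH 7.8, 0.5mM EDTA, 1mM TCEP, 0.01% Tween-20, 0.1 mg/ml BSA.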

[20] = molecular target: Rap guanine nucleotide exchange factor 3 (Homo sapiens) (UniProt O95398); assay: Confirmatory qHTS for antagonist of cAMP-regulated guanine nucleotide exchange factor 3 (EPAC1) (AID 1645880); details: EPAC1 Rap1B-BODIPY-GDP exchange, fluorescence; activity, negative = inhibition: at 115 µM (top of the series);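 note: plate controls were DMSO only for no effect and full effect of the ATA control for full effect; nearly all actives have a fitted effect of over 55% in size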
Procedure, shortened: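 Nucleotide exchange uses 100 nM EPAC1, 250 nM RAP1B-BODIPY-GDP and 50 uM GDP, with compounds in a concentration-titration series. After 5 min at room temperature, fluorescence (480 nm ex/540 nm em) is read every 5 min for 30 min. Data are normalized to control ATA and DMSO.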

[21] = molecular target: Rap guanine nucleotide exchange factor 4 (Homo sapiens) (UniProt Q8WZA2); assay: Confirmatory qHTS for agonist of cAMP-regulated guanine nucleotide exchange factor 4 (EPAC2) (AID 1645884); details: EPAC2 GEF activity, Rap1B-BODIPY-GDP fluorescence; activation: at 154 µM (top of the series), percent relative to cAMP agonist control;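 note: nucleotide exchange releases bodipy-GDP from Rap1 and this lowers its fluorescence; potency is the fitted concentration of half-maximal effect; nearly all actives have a fitted effect of over 65% in size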
[22] = NFAT Signaling Pathway (AID 444; active = well fitted curve in either direction with a large enough effect, not every such curve was filed as active; inconclusive = small, poorly fitted or top-dose-only effect, or another doubt;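 note: carbachol stimulus at about its EC50 of 1 µM final; % is set by controls: 0 for no effect and ±100 for the full control effect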); details: Jurkat NFAT-bla M1, carbachol, beta-lactamase ratio, 5 h; at 7.69 µM (top of the series) unless noted
Procedure, shortened: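 Jurkat cells with NFAT-driven β-lactamase reporter and co-expressed M1 receptor, stimulated with carbachol (final 1 uM, ~EC50), compound titration, 5 h at 37 °C. CCF4 loaded 1 h at RT; 460/530 nm ratio gave %activity and AC50.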

[23] = molecular target: Mitogen-activated protein kinase 10 (Mus musculus) (UniProt Q61831); assay: JNK3 AlphaScreen Assay (AID 530; active = well fitted curve in either direction with a large enough effect, not every such curve was filed as active; inconclusive = small, poorly fitted or top-dose-only effect, or another doubt;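 note: kinase came from lysate of stimulated human HepG2 cells; signal reports phosphorylation of biotinylated GST-cJun 1-79 at Ser73 with 10 µM ATP; % is set by controls: 0 for no effect and ±100 for the full control effect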); details: JNK3 lysate, c-Jun phosphorylation; activity change, negative = inhibition: at 57.1 µM (top of the series)
Procedure, shortened: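 qHTS format: compounds tested as titrations against IL-1beta/TNF-alpha-activated HepG2 lysate JNK3 with biotin-GST-cJun substrate and 10 uM ATP at room temperature. Loss of anti-phospho-cJun AlphaScreen signal indicates inhibition.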

[24] = qHTS Assay for Identification of Small Molecule Antagonists for Thrombopoietin (TPO) Signaling Pathway (AID 918); details: TPO-dependent cell signaling reporter, antagonist mode; activity change, negative = inhibition: at 38.5 µM (top of the series)
Procedure, shortened: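 First, Ba/F3 reporter cells expressing human TPO receptor were held overnight without IL-3. Next, compound and 26 pM TPO were added. After 24 hrs incubation at 37 C, luciferase luminescence under the Glycoprotein IIb promoter was recorded.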

[25] = Quantitative high throughput screen for delayed death inhibitors of the malarial parasite plastid, 96 hour incubation (AID 488745);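 note: luciferase-expressing P. falciparum in erythrocytes at 2% hematocrit and 0.1% parasitemia; % is set by controls: 0 for no effect and ±100 for the full control effect; nearly all actives have a fitted effect of over 70% in size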
Procedure, shortened: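 Growth of reporter-bearing P. falciparum in red cells is measured after 96 h with compound, covering two erythrocytic cycles. Luminescence from the integrated luciferase serves as the growth signal.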

[26] = Quantitative high throughput screen for delayed death inhibitors of the malarial parasite plastid, 48 hour incubation (AID 488752); note: potency is the fitted concentration of half-maximal effect; nearly all actives have a fitted effect of over 65% in size
Procedure, shortened: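 One parasite generation (48 h, 37 C, 5% CO2) of luciferase-reporter P. falciparum in erythrocytes is run with test compound; decreased luminescence indicates inhibited growth.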

[27] = Validation screen for small molecules that induce DNA re-replication in SW480 colon adenocarcinoma cells (AID 504364); note: 0% is about no effect
Procedure, shortened: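 Cells are treated 48 hr with test compound, stained 40 min with Hoechst at 37 C, and scanned for nuclear fluorescence; compounds inducing re-replication increase nuclei with elevated intensity.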

NCCCCCCNS(=O)(=O)c1cccc2c(Cl)cccc12
inactive: Potency [3] | activation [5] -27.9% | Potency [10] | Potency [17]
inconclusive: activity, negative = inhibition [1] 58.4% [activator] [at 38 µM] | Potency [2] 15.1 µM [activator, partial curve] | Potency [6] 20 µM [inhibitor, single point] | Potency [7] 3.16 µM [inhibitor, partial curve, poor fit] | Potency [8] 17.8 µM [inhibitor, partial curve, poor fit] | activity change, negative = inhibition [9] 1.17% | Potency [11] 3.16 µM [inhibitor, partial curve] | Potency [12] 12.6 µM [inhibitor, single point] | Potency [13] 10 µM [inhibitor, single point] | Potency [14] 17.8 µM [inhibitor, single point] | Potency [15] 12.6 µM [inhibitor, partial curve] | Potency [16] 39.8 µM [inhibitor, partial curve] | Potency [18] 15.8 µM [activator, single point]
active: Potency [4] 0.199 µM

COc1cc(O)c2c(=O)cc(C)oc2c1CC=C(C)C
inconclusive: Potency [19] 50.1 µM [inhibitor, partial curve] | Potency [21] 22.3 µM [activator, partial curve, poor fit]
inactive: Potency [9] | Potency [20]

CCCC(=O)NCCc1c2n(c3ccc(OC)cc13)Cc1ccccc1-2
inactive: activity change, negative = inhibition [22] -10.2% [at 38 µM] | Potency [23] | Potency [25] | Potency [27]
inconclusive: activity, negative = inhibition [1] -54.9% [inhibitor] [at 38 µM] | Potency [3] 0.282 µM [inhibitor, partial curve, poor fit] | Potency [5] 10 µM [inhibitor, partial curve] | activity change, negative = inhibition [24] 0.929% [phenotype inactive] | activity change, negative = inhibition [9] -5.2% | Potency [10] 39.8 µM [inhibitor, single point] | Potency [12] 14.1 µM [inhibitor, partial curve] | Potency [13] 14.1 µM [inhibitor, partial curve] | Potency [14] 14.1 µM [inhibitor, partial curve] | Potency [15] 5.01 µM [inhibitor, partial curve] | Potency [26] 10.4 µM [inhibitor, single point]
